These are yes or no findings as the source states them, for the method shown. Binding seen in cells or lysates may run through a third protein. Some results given as binding are weak or reduced against the parent protein; the word gives no strength. Tags and fused reporters may be left off the sequences shown.
Biological target: T1, GST-tagged TPR2 (Arabidopsis) (UniProt Q9LRZ0)
T1 sequence: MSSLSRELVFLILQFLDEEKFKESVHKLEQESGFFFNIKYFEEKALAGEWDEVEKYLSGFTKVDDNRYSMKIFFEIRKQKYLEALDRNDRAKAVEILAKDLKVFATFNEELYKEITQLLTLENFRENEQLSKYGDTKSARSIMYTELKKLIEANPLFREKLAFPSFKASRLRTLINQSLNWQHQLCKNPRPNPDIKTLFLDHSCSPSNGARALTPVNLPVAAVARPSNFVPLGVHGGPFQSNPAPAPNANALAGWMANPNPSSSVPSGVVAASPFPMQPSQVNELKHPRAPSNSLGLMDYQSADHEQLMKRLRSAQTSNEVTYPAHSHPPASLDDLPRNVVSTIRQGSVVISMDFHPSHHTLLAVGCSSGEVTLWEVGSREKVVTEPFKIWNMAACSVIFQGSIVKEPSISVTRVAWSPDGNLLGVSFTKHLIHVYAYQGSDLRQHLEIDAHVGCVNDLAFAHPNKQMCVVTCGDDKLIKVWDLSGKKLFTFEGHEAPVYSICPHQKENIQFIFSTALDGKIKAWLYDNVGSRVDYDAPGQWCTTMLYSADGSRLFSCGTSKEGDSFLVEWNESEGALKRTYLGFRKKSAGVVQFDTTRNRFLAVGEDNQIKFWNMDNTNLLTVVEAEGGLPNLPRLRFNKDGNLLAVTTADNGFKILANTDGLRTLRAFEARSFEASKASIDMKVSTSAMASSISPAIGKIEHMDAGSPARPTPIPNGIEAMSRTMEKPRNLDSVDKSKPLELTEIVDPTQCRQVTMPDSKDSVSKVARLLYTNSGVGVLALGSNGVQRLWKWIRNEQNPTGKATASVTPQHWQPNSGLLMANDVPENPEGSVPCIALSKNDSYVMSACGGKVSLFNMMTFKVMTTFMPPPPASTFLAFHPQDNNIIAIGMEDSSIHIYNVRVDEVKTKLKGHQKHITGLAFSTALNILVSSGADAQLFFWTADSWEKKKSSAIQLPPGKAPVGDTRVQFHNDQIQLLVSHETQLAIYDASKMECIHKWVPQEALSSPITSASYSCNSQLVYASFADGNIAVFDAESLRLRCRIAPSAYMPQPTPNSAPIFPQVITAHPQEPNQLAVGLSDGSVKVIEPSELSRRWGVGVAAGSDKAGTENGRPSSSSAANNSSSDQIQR
Assay: pull-down; GST-TPR2 or GST from E. coli extract bound to GST beads (4°C, 1.5 h), washed 3 times with PBS; soluble T7-SNC1-TIR extract added, 4°C, 1 h; washed with PBS; blot with anti-GST and anti-T7; only the target purified

binding: binds
B1: His-T7-SNC1 TIR (domain or fragment, UniProt O23530 1-182)
chain: MMDTSKDDDMEIASSSGSRRYDVFPSFRGEDVRDSFLSHLLKELRGKAITFIDDEIERSRSIGPELLSAIKESRIAIVIFSKNYASSTWCLNELVEIHKCYTNLNQMVIPIFFHVDASEVKKQTGEFGKVFEETCKAKSEDEKQSWKQALAAVAVMAGYDLRKWPSEAAMIEELAEDVLRKT
